Drawing on PMC12727705, this text covers binding for 1 molecule.

Sequences of proteins named here, by UniProt entry; tags and fusion partners are left off.
UniProt Q9TW45: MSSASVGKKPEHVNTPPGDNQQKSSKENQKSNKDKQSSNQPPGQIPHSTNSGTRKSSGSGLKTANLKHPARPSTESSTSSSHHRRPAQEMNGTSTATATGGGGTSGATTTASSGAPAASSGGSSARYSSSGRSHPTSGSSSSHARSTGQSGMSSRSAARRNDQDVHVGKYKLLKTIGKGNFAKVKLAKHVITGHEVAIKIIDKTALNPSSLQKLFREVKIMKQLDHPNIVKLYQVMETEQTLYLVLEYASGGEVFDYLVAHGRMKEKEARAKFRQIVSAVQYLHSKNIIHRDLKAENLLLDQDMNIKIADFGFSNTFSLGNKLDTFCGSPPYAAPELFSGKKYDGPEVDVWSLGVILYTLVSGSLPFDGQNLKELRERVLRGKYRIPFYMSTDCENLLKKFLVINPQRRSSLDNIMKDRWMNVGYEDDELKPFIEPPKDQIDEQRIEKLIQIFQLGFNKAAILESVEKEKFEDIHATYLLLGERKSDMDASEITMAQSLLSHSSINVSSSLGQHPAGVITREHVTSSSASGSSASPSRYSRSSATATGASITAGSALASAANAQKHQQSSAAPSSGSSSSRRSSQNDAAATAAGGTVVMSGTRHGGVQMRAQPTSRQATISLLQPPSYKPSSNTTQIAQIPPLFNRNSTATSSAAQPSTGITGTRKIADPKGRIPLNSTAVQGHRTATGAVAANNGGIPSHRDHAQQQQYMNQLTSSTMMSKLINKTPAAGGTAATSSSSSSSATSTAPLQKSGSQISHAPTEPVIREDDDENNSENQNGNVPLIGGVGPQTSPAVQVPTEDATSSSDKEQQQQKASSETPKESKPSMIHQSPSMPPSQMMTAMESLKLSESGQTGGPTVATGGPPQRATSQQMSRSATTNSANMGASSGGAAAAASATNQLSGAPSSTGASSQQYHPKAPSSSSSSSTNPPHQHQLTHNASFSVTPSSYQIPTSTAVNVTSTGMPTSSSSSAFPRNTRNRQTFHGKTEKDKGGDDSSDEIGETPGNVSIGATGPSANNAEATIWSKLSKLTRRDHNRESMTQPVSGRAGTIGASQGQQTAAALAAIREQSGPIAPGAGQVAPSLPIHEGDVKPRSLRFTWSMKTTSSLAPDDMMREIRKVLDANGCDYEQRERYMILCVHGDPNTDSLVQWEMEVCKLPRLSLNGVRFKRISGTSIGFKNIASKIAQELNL
UniProt V6CLN5: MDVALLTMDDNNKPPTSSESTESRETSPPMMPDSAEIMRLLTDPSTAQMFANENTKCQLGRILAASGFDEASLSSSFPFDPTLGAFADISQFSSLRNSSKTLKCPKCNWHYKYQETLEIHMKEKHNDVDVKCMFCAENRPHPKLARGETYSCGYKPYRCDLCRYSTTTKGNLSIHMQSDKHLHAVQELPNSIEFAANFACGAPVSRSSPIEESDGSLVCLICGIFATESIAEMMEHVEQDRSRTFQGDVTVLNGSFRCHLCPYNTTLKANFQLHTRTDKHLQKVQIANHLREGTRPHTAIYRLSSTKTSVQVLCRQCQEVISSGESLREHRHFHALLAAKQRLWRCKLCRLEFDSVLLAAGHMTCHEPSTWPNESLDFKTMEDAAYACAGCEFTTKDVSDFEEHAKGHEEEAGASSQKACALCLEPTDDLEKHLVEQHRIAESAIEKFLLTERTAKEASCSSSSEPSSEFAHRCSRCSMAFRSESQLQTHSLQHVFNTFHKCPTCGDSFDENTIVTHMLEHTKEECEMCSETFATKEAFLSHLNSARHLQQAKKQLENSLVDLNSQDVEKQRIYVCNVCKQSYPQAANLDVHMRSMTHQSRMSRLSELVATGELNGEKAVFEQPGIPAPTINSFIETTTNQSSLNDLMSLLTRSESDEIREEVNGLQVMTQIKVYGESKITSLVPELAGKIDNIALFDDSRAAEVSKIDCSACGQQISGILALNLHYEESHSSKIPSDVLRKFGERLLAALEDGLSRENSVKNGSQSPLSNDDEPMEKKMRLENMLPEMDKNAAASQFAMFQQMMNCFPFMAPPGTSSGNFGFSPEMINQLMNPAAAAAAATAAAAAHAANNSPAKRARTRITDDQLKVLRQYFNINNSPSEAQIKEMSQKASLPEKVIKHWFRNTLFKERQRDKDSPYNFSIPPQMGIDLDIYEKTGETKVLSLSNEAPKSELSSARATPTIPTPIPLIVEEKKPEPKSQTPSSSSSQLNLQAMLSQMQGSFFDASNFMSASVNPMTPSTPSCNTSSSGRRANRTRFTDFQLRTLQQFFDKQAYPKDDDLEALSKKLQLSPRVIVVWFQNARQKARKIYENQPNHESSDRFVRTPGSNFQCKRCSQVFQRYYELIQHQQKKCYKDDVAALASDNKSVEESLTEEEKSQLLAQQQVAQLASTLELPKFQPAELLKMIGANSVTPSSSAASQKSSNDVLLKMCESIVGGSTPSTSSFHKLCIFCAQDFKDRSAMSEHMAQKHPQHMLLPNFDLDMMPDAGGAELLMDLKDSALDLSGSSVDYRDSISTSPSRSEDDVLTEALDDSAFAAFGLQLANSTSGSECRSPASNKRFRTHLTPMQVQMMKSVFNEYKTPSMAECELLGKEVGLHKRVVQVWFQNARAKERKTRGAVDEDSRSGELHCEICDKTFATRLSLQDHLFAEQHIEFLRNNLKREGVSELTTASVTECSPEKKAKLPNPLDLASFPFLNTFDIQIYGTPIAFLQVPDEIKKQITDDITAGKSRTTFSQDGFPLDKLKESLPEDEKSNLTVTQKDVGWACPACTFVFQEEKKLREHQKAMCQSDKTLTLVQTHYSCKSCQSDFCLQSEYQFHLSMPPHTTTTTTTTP

Experiment [1] addresses PAR-1::mSc::AID::3xFLAG (C. elegans) (UniProt Q9TW45). In words: co-IP; C. elegans lysate (L4 or young adults) of knock-in strains; anti-FLAG M2 magnetic beads with 10 U/ml benzonase, 1 h at 4 °C; 50 mM HEPES pH 7.4, 100 mM KCl, 0.5% NP40, 1 mM DTT; blot for HA; the ZFH-2 experiment in a daf-2(e1370) background.
Experiment [2] deals with ZFH-2::mSc::AID::3xFLAG (C. elegans) (UniProt V6CLN5). Described as above.

No constants are given. Whether binding was seen depends on the method and setting. Binding seen in cells or lysates may run through a third protein. Some binding calls cover weakened binding; strength is not graded here. Tags and fused reporters may be left off the sequences shown.

B1: DAF-16::mNG::HA (protein, UniProt O16850 1-541)
chain: MQLEQKSSLHCSKCRNFLQKFSQDMQAWNCRELDSPLPSDITLHNLEPARPDSGMSFSTDFDDDFFNLDLHQQERSASFGGVTQYSQQFLREKCSFSPYFHTSLETVDSGRTSLYGSNEQCGQLGGASSNGSTAMLHTPDGSNSHQTSFPSDFRMSESPDDTVSGKKTTTRRNAWGNMSYAELITTAIMASPEKRLTLAQVYEWMVQNVPYFRDKGDSNSSAGWKNSIRHNLSLHSRFMRIQNEGAGKSSWWVINPDAKPGRNPRRTRERSNTIETTTKAQLEKSRRGAKKRIKERALMGSLHSTLNGNSIAGSIQTISHDLYDDDSMQGAFDNVPSSFRPRTQSNLSIPGSSSRVSPAIGSDIYDDLEFPSWVGESVPAIPSDIVDRTDQMRIDATTHIGGVQIKQESKPIKTEPIAPPPSYHELNSVRGSCAQNPLLRNPIVPSTNFKPMPLPGAYGNYQNGGITPINWLSTSNSSPLPGIQSCGIVAAQHTVASSSALPIDLENLTLPDQPLMDTMDVDALIRHELSQAGGQHIHFDL
Turning to B1, the binding result in experiment [1] and in experiment [2] was “binds” each time.
